Measured values taken from the supplement of paper PMC6289059.
Values joined by “and” are separate entries in the source; they are usually repeats but may differ in a detail not shown here. Equal entries are not always repeated. Some of the results follow. Single values are uncertain, as repeats are few or missing.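 The assay uses human stem cell-derived hepatocyte-like cells whose DGUOK gene was disrupted by CRISPR, modeling liver mtDNA depletion syndrome. ATP signals were scored within each plate, and any drug with a score of at least 3 was called a primary hit.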

system: DGUOK Δ14/Δ5 iPSC-derived hepatocyte-like cells (SV20); test: ATP level (CellTiter-Glo luminescence) Z score relative to plate distribution, under 2-DG glycolysis block; higher = more cellular ATP (rescue of mitochondrial ATP production); conditions: 5 µM; treatment time: day 15 to day 20 of differentiation (5 days); 2-deoxy-D-glucose: 20 mM for 24 h before assay

SMILES	ATP level
CC(C)CC(N(C)C)C1(c2ccc(Cl)cc2)CCC1 (stereo unspecified)	inactive: -0.595
COC(=O)C1=CO[C@@H](C)[C@H]2CN3CC[C@]4(C(=O)Nc5ccccc54)[C@@H]3C[C@H]12	inactive: -1.35
N#C/C(=C\c1cccc(O)c1)C(=O)O [alpha-CYANO-3-HYDROXYCINNAMIC ACID]	inactive: -0.901
CC(=O)O[C@@H]1C[C@@]2(C)[C@H](c3ccoc3)C[C@H]3O[C@]32[C@]2(C)C(=O)C(O)=C3C(C)(C)C(=O)C=C[C@]3(C)[C@@H]12	inactive: 0.698
O=c1[nH]c2ccccc2n1CCCN1CCC(n2c(=O)[nH]c3cc(Cl)ccc32)CC1	inactive: 2.02
COP(=S)(OC)Oc1ccc(SC)c(C)c1	inactive: 0.12
C#C[C@]1(O)CC[C@H]2[C@@H]3CCC4=CC(=O)CC[C@]4(C)[C@H]3CC[C@@]21C	active: 3.34
CC(C)[N+](C)(CCC(C(N)=O)(c1ccccc1)c1ccccc1)C(C)C	inactive: -0.0678
C[C@]12CC[C@H]3[C@@H](CC[C@]4(O)C[C@@H](O)CC[C@]34C=O)[C@@]1(O)CC[C@@H]2C1=CC(=O)OC1	inactive: -14.1
NC(N)=NOCC[C@H](N)C(=O)O	inactive: -0.934
CC(Oc1ccc(Cl)cc1Cl)C(=O)O (stereo unspecified)	inactive: 0.861
CNNC	inactive: -0.468
O=C1C=CC(=O)c2c(O)cccc21	inactive: 2.19
COc1ccc2c(c1)[C@]13CCCC[C@@H]1[C@H](C2)N(C)CC3	inactive: -5.11
C[C@H]1O[C@@H](O[C@H]2[C@@H](O)C[C@H](O[C@H]3[C@@H](O)C[C@H](O[C@H]4CC[C@@]5(C)[C@H](CC[C@@H]6[C@@H]5CC[C@]5(C)[C@@H](C7=CC(=O)OC7)[C@@H](O)C[C@]65O)C4)O[C@@H]3C)O[C@@H]2C)C[C@H](O)[C@@H]1O	inactive: -5.59
C=C[C@H]1CN2CC[C@H]1C[C@H]2[C@H](O)c1ccnc2ccccc12	inactive: 0.524
CC1=NCCc2c1[nH]c1cc(O)ccc21	inactive: -1.61 and inactive: -2.32
C=CC[C@]1(O)CC[C@H]2[C@@H]3CCC4=CC(=O)CCC4=C3C=C[C@@]21C	inactive: -0.109
COc1cc(OC)c2c(c1)O[C@H](c1ccc(OC)c(OC)c1)[C@@H](O)C2	inactive: 0.784
OC[C@@H]1CCCN2CCCC[C@H]12	inactive: -0.309
O.O.O.O=C([O-])[C@H]([O-])[C@@H]([O-])C(=O)[O-].O=C([O-])[C@H]([O-])[C@@H]([O-])C(=O)[O-].[K+].[K+].[Sb+3].[Sb+3]	inactive: -3.29
C1CCc2nnnn2CC1	inactive: -0.731

SMILES	ATP level
C=C[C@H]1CN2CC[C@H]1C[C@@H]2[C@@H](O)c1ccnc2ccccc12	inactive: 0.216
C=CCN=C=S	active: 3.88
CC(Cc1ccc(O)cc1)NCC(O)c1cc(O)cc(O)c1 (stereo unspecified)	inactive: 0.736
C[C@@H](CO)NC(=O)[C@@H]1C=C2c3cccc4[nH]cc(c34)C[C@H]2N(C)C1	inactive: -3.76
Clc1ccc(C(OCCN2CCCCC2)c2ccccc2)cc1 (stereo unspecified)	inactive: -0.74
C[C@]12CC[C@H](O)C[C@H]1CC[C@@H]1[C@@H]2C[C@@H](O)[C@]2(C)[C@@H](C3=CC(=O)OC3)CC[C@]12O	inactive: 0.33
NCCc1c[nH]c2ccccc12	inactive: -0.405
NC(=O)C[S+]([O-])C(c1ccccc1)c1ccccc1 (stereo unspecified)	inactive: 1.26
CC[C@@H](C(=O)O)[C@@H]1O[C@@H]([C@@H](C)[C@H](O)[C@H](C)C(=O)[C@H](CC)[C@H]2O[C@]3(C=C[C@@H](O)[C@]4(CC[C@@](C)([C@H]5CC[C@](O)(CC)[C@H](C)O5)O4)O3)[C@H](C)C[C@@H]2C)[C@@H](C)C[C@@H]1C	inactive: -17.4
CC(=O)OCC1=C(C(=O)O)N2C(=O)[C@@H](NC(=O)CCC[C@@H](N)C(=O)O)[C@H]2SC1	inactive: 1.72
COc1c2c(cc3c1OCO3)CC[N+](C)=C2	inactive: 1.39
Cc1cccc(C)c1NC1=NCCCS1	inactive: -13.1
C[C@]12CCC(=O)C=C1CCc1ccc(O)cc12	inactive: -5.32
O=C1CCC[C@@H]2[C@H]3CCCN4CCC[C@@H](CN12)[C@@H]34	inactive: -2.54
O=P1(NCCCl)OCCCN1CCCl (stereo unspecified)	inactive: 1.39
CC(=O)Oc1ccc(Cl)c2cccnc12	inactive: -1.66
N#CN=C(N)N	inactive: -1.25
C=C(C)[C@@H]1[C@H]2OC(=O)[C@@H]1[C@]1(O)C[C@H]3O[C@]34C(=O)O[C@H]2[C@]14C	inactive: -2.33
CC(C)c1c(CN(C)C(C)Cc2ccccc2)n(C)n(-c2ccccc2)c1=O (stereo unspecified)	inactive: 0.344
N#CCCN	inactive: -1.17
Oc1ccc(Cl)cc1	inactive: -0.0639
CC1=CCC[C@@H]2C1(C)CCC(C)[C@@]2(C)CC/C(C)=C/C[n+]1cn(C)c2c(N)ncnc21 (stereo partly specified)	inactive: 0.569

SMILES	ATP level
O=c1[nH]c(=O)n(Cl)c(=O)n1Cl	inactive: 2.89
COS(C)(=O)=O	inactive: -0.861
CC(=O)OC1CCC23C(=O)OC45CCC(C6=CC(=O)OC6)C4(C)CCC2C5CCC3(O)C1 (stereo unspecified)	inactive: -11.6
NC(=O)CN1CCCC1=O	inactive: 2.08
COC(=O)C(c1ccccc1)C1CCCCN1 (stereo unspecified)	inactive: 2.97
COC[C@]12CN(C=O)[C@@H]3[C@@H]4[C@H](OC)[C@H]1[C@@]3([C@@H](OC)C[C@H]2O)[C@@H]1C[C@@]2(O)[C@H](OC(=O)c3ccccc3)[C@@H]1[C@]4(OC(C)=O)[C@@H](O)[C@@H]2OC	inactive: 1.29
CC(C)=CCCC1(C)C=Cc2c(O)c3c(c(CC=C(C)C)c2O1)OC12C(=CC4CC1C(C)(C)OC2(C/C=C(/C)C(=O)O)C4O)C3=O (stereo unspecified)	inactive: 1.28
C[C@H]1C(=O)O[C@@H]2CCN3CC=C(COC(=O)[C@](C)(O)[C@]1(C)O)[C@H]23	inactive: 1.28
CO[C@]12C[C@@H](COC(=O)c3cncc(Br)c3)CN(C)[C@@H]1Cc1cn(C)c3cccc2c13	inactive: 0.245
C/C=C(/C)C(=O)O[C@H]1CC[C@@]2(C)[C@@H]3CC[C@H]4[C@]5(O)C[C@H](O)[C@@]6(O)[C@@H](CN7C[C@@H](C)CC[C@H]7[C@@]6(C)O)[C@]5(O)C[C@]42O[C@]13O	inactive: -6.71
CC(=O)OCC1=C(C(=O)O)N2C(=O)[C@@H](N)[C@H]2SC1	inactive: 2.82
COc1cc2c(cc1OC)[C@@H]1C(=O)c3ccc4oc(C(C)C)cc4c3O[C@@H]1CO2	inactive: -8.93
CC(=O)[C@H]1CC[C@H]2[C@@H]3CC[C@@H]4C[C@H](O)CC[C@]4(C)[C@H]3CC[C@]12C	inactive: 2.31
C[N+]12CCC(CC1)C(OC(=O)C(O)(c1ccccc1)c1ccccc1)C2 (stereo unspecified)	inactive: -3.49
O=C(O)CCC1NCC2CC1CN1CCCCC21 (stereo unspecified)	inactive: -0.298
OC[C@@H](O)[C@H]1O[C@@H]2O[C@H](C(Cl)(Cl)Cl)O[C@@H]2[C@H]1O	inactive: 1.13
COC(=O)/C(C)=C\C[C@@]12OC(C)(C)[C@@H]3C[C@@H](C=C4C(=O)c5c(O)c6c(c(CC=C(C)C)c5O[C@]431)O[C@](C)(CCC=C(C)C)C=C6)C2=O	inactive: -0.896
COc1cc2c(cc1-c1cc3cc4ccoc4cc3oc1=O)OCO2	inactive: -1.5
CN(C)C(=S)SSC(=S)N(C)C	active: 4.31
O=C1NC(=O)C(=O)C(=O)N1	inactive: -4.98
OCC(Br)(Br)Br	inactive: 0.952
CC(C)(C)NCC(O)c1ccccc1Cl (stereo unspecified)	inactive: 1

SMILES	ATP level
CCC(C)(C)O	inactive: -0.296
CC[C@H]1CN2CCc3cc(OC)c(OC)cc3[C@@H]2C[C@@H]1C[C@H]1NCCc2cc(OC)c(OC)cc21	inactive: -26.5
CC(C)(C)C(=O)C(Oc1ccc(Cl)cc1)n1cncn1 (stereo unspecified)	inactive: -4.96
CNC(C)C(O)c1ccccc1 (stereo unspecified)	inactive: 0.368
COc1cc([C@@H]2c3cc4c(cc3[C@H](O)[C@H]3COC(=O)[C@H]23)OCO4)cc(OC)c1OC	inactive: -2.36
CCNC1(c2cccs2)CCCCC1=O (stereo unspecified)	inactive: 0.239
Cc1ccc(O)cc1.Cc1cccc(O)c1.Cc1ccccc1O	inactive: -1.39
CS(=N)(=O)CC[C@H](N)C(=O)O (stereo partly specified)	inactive: 2.2
CC[C@H]1[C@@H]2C[C@H]3[C@@H]4N(C)c5ccccc5[C@]45C[C@@H]([C@@H]2[C@H]5O)N3[C@@H]1O	inactive: 0.593
C[C@@H]1CC[C@H]2[C@@H](C)C(=O)O[C@@H]3O[C@@]4(C)CC[C@@H]1[C@]32OO4	inactive: -0.63
COc1ccc2c(c1)[nH]c1c(C)nccc12	inactive: 0.653
CC1(C)C(C=C(Cl)Cl)C1C(=O)OCc1cccc(Oc2ccccc2)c1 (stereo unspecified)	inactive: -0.643
O=C1c2ccccc2C(=O)c2ccccc21	inactive: -2.42
CNC(C)[C@H](O)c1ccccc1 (stereo partly specified)	inactive: 0.211
NCCc1c[nH]c2ccc(O)cc12	inactive: -2.78
CCN(C(C)=O)c1cccc(-c2ccnc3c(C#N)cnn23)c1	active: 3.95
O=[N+]([O-])c1ccc([As](=O)(O)O)cc1	active: 7.39
CCC(COC(=O)c1cc(OC)c(OC)c(OC)c1)(c1ccccc1)N(C)C (stereo unspecified)	active: 3.54
C[C@]12CC[C@H]3[C@@H](CC[C@@]45O[C@@H]4C(O)=C(C#N)C[C@]35C)[C@@H]1CC[C@@H]2O	inactive: -0.833
O=C(N/N=C/c1ccc([N+](=O)[O-])o1)c1cc([N+](=O)[O-])cc([N+](=O)[O-])c1O	inactive: 0.319
